# At least one structure is not confirmed: it was looked up by name or label, or the drawing left a doubt.
# Sequences of proteins named here, by UniProt entry; tags and fusion partners are left off. Residues count along the entry.
# UniProt O75116, 1-552: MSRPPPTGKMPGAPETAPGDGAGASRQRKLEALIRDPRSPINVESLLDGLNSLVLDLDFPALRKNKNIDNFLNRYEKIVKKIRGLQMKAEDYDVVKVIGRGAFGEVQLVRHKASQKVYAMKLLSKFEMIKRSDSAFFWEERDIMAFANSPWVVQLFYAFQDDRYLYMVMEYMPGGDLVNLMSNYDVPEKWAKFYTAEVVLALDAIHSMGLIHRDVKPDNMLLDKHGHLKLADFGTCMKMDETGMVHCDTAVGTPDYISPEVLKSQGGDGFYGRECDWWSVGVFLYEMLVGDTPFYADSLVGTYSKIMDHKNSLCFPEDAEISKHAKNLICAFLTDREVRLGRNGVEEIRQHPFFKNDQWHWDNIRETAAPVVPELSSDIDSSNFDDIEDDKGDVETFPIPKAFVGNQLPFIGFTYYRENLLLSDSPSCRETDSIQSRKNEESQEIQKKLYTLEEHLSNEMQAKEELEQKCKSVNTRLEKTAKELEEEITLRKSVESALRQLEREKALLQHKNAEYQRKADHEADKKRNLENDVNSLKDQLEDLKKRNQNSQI
# Target: T1, recombinant N-terminal GST-tagged human Rho kinase 2 (ROCK2, amino acids 1-552) (Homo sapiens, UniProt O75116)
# T1 construct: ROCK2, amino acids 1-552; purchased Invitrogen Inc. PV3759
# Test: In vitro Rho kinase assay (luciferase-based ATP consumption), ROCK2
# Format: biochemical
# Protocol: In Vitro Rho Kinase Assay
# Rho kinase biochemical assays described below depend on firefly luciferase-based, indirect measurement of total ATP consumption by the kinase following incubation with substrate and ATP. 25 μl of Rho kinase assay buffer (20 mM Tris-HCL [pH 7.5], 1 mM MgCl2, 0.4 mM CaCl2, 0.15 mM EGTA, 0.1 mg/ml bovine serum albumin) containing 0.82 μg/ml of recombinant N-terminal GST-tagged human Rho kinase 1 (ROCK1, amino acids 1-535, Invitrogen Inc., cat. #PV-3691) or recombinant N-terminal GST-tagged human Rho kinase 2 (ROCK2, amino acids 1-552, Invitrogen Inc., cat #PV3759), 100 μg/ml S6 peptide substrate (related to amino acids 218-249 of the human 40S ribosomal protein S6, and suitable for ROCK1 or ROCK2, e.g. Upstate/Millipore Inc., cat #12-420), and 3 µM ATP are dispensed to wells of a 384 multi-well opaque plate. The plate is centrifuged for 30 seconds at approximately 200×g. […] After an additional 10 minute incubation at room temperature (about 22° C.), luminescence activity is measured on a Molecular Devices Analyst multi-mode plate reader or other suitable plate reader. Kinase inhibition results in less ATP consumption, and therefore increased luminescence signal. Negative control activity is measured with DMSO lacking any test compound. […] Efficacy is measured as a percentage of positive control activity. […]
smiles,measurement,value
"Cc1c(-c2ccnc(N)n2)sc2ccc(C(=O)N3CCC(O)(O)CC3)cc12 [Example 508, Cc1c(sc2ccc(cc12)C(═O)N3CCC(O)(O)CC3)-c4ccnc(N)n4]",IC50,< 5 µM

# — patent publication US20080021026A1, “BENZOTHIOPHENE INHIBITORS OF RHO KINASE” (priority 2006, published 2008)
